Values quoted from earlier work, collected in patent US7767881B2, “Utilization of histamine receptor h3 gene participating in body weight or food intake control” (priority 2001, dated 2010).

System: histamine neuron

In the case of `CN1C(=O)CN=C(c2ccccc2)c2cc(Cl)ccc21` [diazepam], the “histamine neuron metabolic turnover” value is listed as “reduce histamine neuron metabolic turnover”.
